The list is a part of this screen's results and no random one: it is rich in T/C values a quarter to a half above the control, in often repeated tests (any T/C) and in doses without a T/C. Further doses and runs are listed elsewhere. T/C is the treated group as % of the vehicle group. Some entries give survivors of the animals treated and no T/C: the source files T/C as zero there, which appears to mark a toxic dose or a test without result, not a measured value. Some doses without a T/C left all or most animals alive at the check, yet need not have been tolerated: survival well below the control is almost never listed, so the zero probably covers shortened survival too. Survivors were counted at the toxicity check, usually on the fifth day, unless a day is given; later deaths do not show. Schedule codes are those of the source, read here as Q, the interval in days (D) or hours (H), X, the number of doses. Some schedule codes hold Z or #, which are not explained here. Some entries hold several experiments; their values stand side by side, smallest first. Where survival is the endpoint, this PubChem deposit counts one and a half times the control or more as active, and values a quarter to a half above the control carry no call in these data; other NCI protocols may use other cut-offs. Signs of the kind (2×) give the number of equal values in this list. Some T/C values are followed by the survivors on the day toxicity was checked, most often the fifth; where none is given, no animal had died by that day.
Tested on: CD2F1 mice, L1210 leukemia sc, survival T/C
Test: NCI In Vivo Anticancer Drug Screen. Data for tumor model L1210 Leukemia (subcutaneous) in CD2F1 (CDF1) mice
Settings: T/C endpoint: median survival time, higher T/C = longer survival
In short: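 T/C ratio: treated-group survival or tumor size over vehicle-control group measurement, in mice carrying transplanted tumors.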

[1] = dose: 1600.0 mg/kg/injection, schedule: Q01DX Z (ip), vehicle: other

With `CN1c2c(nc(N)[nH]c2=O)NCC1CCNc1ccc(C(=O)NC(CCC(=O)O)C(=O)O)cc1` (configuration not stated) as the compound, how does the T/C (dose: 25.0 mg/kg/injection, schedule: Q03HX024 (ip), vehicle: other) read?
The T/C was 133 % of control.

And the T/C (dose: 50.0 mg/kg/injection, schedule: Q01DX009 (ip), vehicle: other)?
The T/C was 133 % of control.

What about the T/C (dose: 50.0 mg/kg/injection, schedule: Q01DX Z (ip), vehicle: other) of the same compound?
The T/C was 144 % of control.

What about the T/C (dose: 50.0 mg/kg/injection, schedule: Q03HX024 (ip), vehicle: other) of the same compound?
The T/C was 133 % of control.

What about the T/C (dose: 100.0 mg/kg/injection, schedule: Q01DX009 (ip), vehicle: other) of the same compound?
The T/C was 133 % of control.

And the T/C (dose: 100.0 mg/kg/injection, schedule: Q01DX Z (ip), vehicle: other)?
The T/C was 133 % of control.

What about the T/C (dose: 100.0 mg/kg/injection, schedule: Q03HX024 (ip), vehicle: other) of the same compound?
Its T/C is 144 % of control.

And the T/C (dose: 200.0 mg/kg/injection, schedule: Q01DX Z (ip), vehicle: other)?
The T/C was 145 % of control.

And the T/C (dose: 200.0 mg/kg/injection, schedule: Q03HX024 (ip), vehicle: other)?
Its T/C is 138 % of control.

And the T/C (dose: 800.0 mg/kg/injection, schedule: Q01DX009 (ip), vehicle: other)?
The T/C was 133 % of control.

What about the T/C (dose: 800.0 mg/kg/injection, schedule: Q01DX Z (ip), vehicle: other, evaluated on day 26) of the same compound?
Its T/C is 144 % of control.

What about the T/C (dose: 800.0 mg/kg/injection, schedule: Q01DX Z (ip), vehicle: other, evaluated on day 30) of the same compound?
The T/C was 140 % of control.

What about the T/C (dose: 800.0 mg/kg/injection, schedule: Q04DX003 (ip), vehicle: other) of the same compound?
The T/C was 133 % of control.

What about the T/C [1] of the same compound?
Its T/C is 130 % of control.

What does the source list for `CN(C)c1nc(N(C)C)nc(N(C)C)n1`?
survivor count (dose: 300.0 mg/kg/injection, schedule: Q01DX009 (ip), vehicle: saline with Tween-80): 10 of 10; survivor count (dose: 360.0 mg/kg/injection, schedule: Q01DX009 (ip), vehicle: saline with Tween-80): 6 of 10

For `COC(=O)C1(F)C(=O)NC(=O)NC1OC` (configuration not stated), which T/C (dose: 72.0 mg/kg/injection, schedule: Q01DX009 (ip), vehicle: Klucel (hydroxypropylcellulose) (HPC)) is on record?
The T/C was 143 % of control.

What about the T/C (dose: 200.0 mg/kg/injection, schedule: Q01DX009 (ip), vehicle: Klucel (hydroxypropylcellulose) (HPC)) of the same compound?
Its T/C is 129 % of control.

Which T/C (dose: 18.8 mg/kg/injection, schedule: Q03HX008 (ip), vehicle: other) does the source give for `O=C(Nc1ccccc1)c1c(O)[nH]c(=S)[nH]c1=O` here?
The T/C was 137 % of control.

What about the T/C (dose: 30.0 mg/kg/injection, schedule: Q01DX005 (ip), vehicle: other) of the same compound?
Its T/C is 130 and 131 % of control.

And the T/C (dose: 67.0 mg/kg/injection, schedule: Q01DX001 (ip), vehicle: other)?
The T/C was 137 and 144 % of control.

And the survivor count (dose: 67.5 mg/kg/injection, schedule: Q01DX005 (ip), vehicle: other)?
Its survivor count is 2 of 10 on day 7 and 3 of 9.

What about the survivor count (dose: 100.0 mg/kg/injection, schedule: Q01DX001 (ip), vehicle: other) of the same compound?
Its survivor count is 5 of 10 and 6 of 10 on day 7.

And the survivor count (dose: 101.1 mg/kg/injection, schedule: Q01DX005 (ip), vehicle: other)?
Its survivor count is 0 of 10 and 1 of 10 on day 7.

`Nc1nc2c(c(=O)[nH]1)NC(CCNc1ccc(C(=O)NC(CCC(=O)O)C(=O)O)cc1)CN2` (configuration not stated) was tested. Which T/C (dose: 100.0 mg/kg/injection, schedule: Q03HX Z (ip), vehicle: other) did it give?
Its T/C is 130 % of control.

And the T/C (dose: 200.0 mg/kg/injection, schedule: Q01DX Z (ip), vehicle: other, evaluated on day 30)?
The T/C was 140 % of control.

And the T/C (dose: 200.0 mg/kg/injection, schedule: Q01DX Z (ip), vehicle: other, evaluated on day 50)?
The T/C was 130 % of control.

What about the T/C (dose: 200.0 mg/kg/injection, schedule: Q03HX Z (ip), vehicle: other) of the same compound?
The T/C was 130 % of control [7 of 8 alive].

And the T/C (dose: 400.0 mg/kg/injection, schedule: Q04DX Z (ip), vehicle: other)?
Its T/C is 125 % of control.

And the survivor count (dose: 800.0 mg/kg/injection, schedule: Q01DX Z (ip), vehicle: other)?
The survivor count was 4 of 8.

What about the T/C (dose: 800.0 mg/kg/injection, schedule: Q04DX Z (ip), vehicle: other) of the same compound?
The T/C was 130 % of control [6 of 8 alive].

What about the survivor count [1] of the same compound?
Its survivor count is 10 of 10.

Which results are given for `CC(C)(C)N1CC1CNC(=O)C(=O)NCC1CN1C(C)(C)C` (configuration not stated)?
T/C (dose: 6.25 mg/kg/injection, schedule: Q01DX009 (ip), vehicle: saline with Tween-80): 132 % of control; T/C (dose: 12.5 mg/kg/injection, schedule: Q01DX009 (ip), vehicle: saline with Tween-80): 126 % of control; survivor count (dose: 25.0 mg/kg/injection, schedule: Q01DX009 (ip), vehicle: saline with Tween-80): 10 of 10; survivor count (dose: 50.0 mg/kg/injection, schedule: Q01DX009 (ip), vehicle: saline with Tween-80): 4 of 10 and 8 of 10

What does the source list for `NCCCN=c1ccc2c3c1c(O)c1c(O)ccc(=O)c1c3[nH]n2CCNCCO`?
T/C (dose: 1.3 mg/kg/injection, schedule: Q03HX024 (ip), vehicle: saline): 139 % of control; T/C (dose: 3.46 mg/kg/injection, schedule: Q01DX009 (ip), vehicle: saline): 132 % of control; T/C (dose: 3.89 mg/kg/injection, schedule: Q03HX008 (ip), vehicle: saline): 131 % of control; T/C (dose: 5.7 mg/kg/injection, schedule: Q01DX009 (ip), vehicle: saline): 149 % of control; T/C (dose: 6.0 mg/kg/injection, schedule: Q03HX024 (ip), vehicle: saline): 126 % of control; T/C (dose: 6.2 mg/kg/injection, schedule: Q01DX005 (ip), vehicle: saline): 131 % of control; T/C (dose: 9.6 mg/kg/injection, schedule: Q01DX009 (ip), vehicle: water): 142 % of control; survivor count (dose: 10.0 mg/kg/injection, schedule: Q03HX024 (ip), vehicle: saline): 7 of 10; T/C (dose: 10.4 mg/kg/injection, schedule: Q04DX003 (ip), vehicle: saline): 139 % of control; survivor count (dose: 16.7 mg/kg/injection, schedule: Q03HX024 (ip), vehicle: saline): 5 of 10; survivor count (dose: 18.0 mg/kg/injection, schedule: Q03HX008 (ip), vehicle: saline): 6 of 10; survivor count (dose: 30.0 mg/kg/injection, schedule: Q03HX008 (ip), vehicle: saline): 1 of 10; T/C (dose: 31.1 mg/kg/injection, schedule: Q01DX001 (ip), vehicle: saline): 139 % of control; survivor count (dose: 44.5 mg/kg/injection, schedule: Q01DX009 (ip), vehicle: saline): 9 of 10; survivor count (dose: 48.0 mg/kg/injection, schedule: Q01DX005 (ip), vehicle: saline): 10 of 10; survivor count (dose: 133.4 mg/kg/injection, schedule: Q04DX003 (ip), vehicle: saline): 3 of 10; survivor count (dose: 144.0 mg/kg/injection, schedule: Q01DX001 (ip), vehicle: saline): 2 of 10

For `CC(=O)OCC(=O)[C@@]1(O)CC[C@H]2[C@@H]3CCC4=CC(=O)CC[C@]4(C)[C@@]3(F)[C@@H](O)C[C@@]21C`, which survivor count (dose: 108.0 mg/kg/injection, schedule: Q01DX Z (sc), vehicle: methylcellulose (MC)) is on record?
Its survivor count is 3 of 10.

What about the survivor count (dose: 180.0 mg/kg/injection, schedule: Q01DX Z (sc), vehicle: methylcellulose (MC)) of the same compound?
Its survivor count is 5 of 10.

What about the survivor count (dose: 833.0 mg/kg/injection, schedule: Q01DX Z (sc), vehicle: methylcellulose (MC)) of the same compound?
Its survivor count is 6 of 10.

Which T/C (dose: 14.0 mg/kg/injection, schedule: Q03HX032 (sc), vehicle: other, evaluated on day 7) does the source give for `NC(=S)N/N=C/c1ccc(O)cn1` here?
The T/C was 107 and 109 % of control.

What about the T/C (dose: 14.0 mg/kg/injection, schedule: Q03HX032 (sc), vehicle: other, evaluated on day 38) of the same compound?
The T/C was 105 and 111 % of control.

What about the T/C (dose: 23.0 mg/kg/injection, schedule: Q03HX032 (sc), vehicle: other, evaluated on day 7) of the same compound?
Its T/C is 124 and 153 % of control.

What about the T/C (dose: 23.0 mg/kg/injection, schedule: Q03HX032 (sc), vehicle: other, evaluated on day 38) of the same compound?
The T/C was 122 and 155 % of control.

And the T/C (dose: 39.0 mg/kg/injection, schedule: Q03HX032 (sc), vehicle: other, evaluated on day 7)?
Its T/C is 187 and 195 % of control.

What about the T/C (dose: 39.0 mg/kg/injection, schedule: Q03HX032 (sc), vehicle: other, evaluated on day 38) of the same compound?
The T/C was 188 and 200 % of control.

And the T/C (dose: 65.0 mg/kg/injection, schedule: Q03HX032 (sc), vehicle: other, evaluated on day 7)?
The T/C was 168 and 169 % of control.

What about the T/C (dose: 65.0 mg/kg/injection, schedule: Q03HX032 (sc), vehicle: other, evaluated on day 38) of the same compound?
Its T/C is 166 % of control (2×).

How did the T/C (dose: 3.12 mg/kg/injection, schedule: Q01DX009 (ip), vehicle: saline) turn out when `Cc1c(-c2ccc(-c3ccccc3F)cc2)nc2ccc(F)cc2c1C(=O)O` was run?
The T/C was 127 % of control.

And the T/C (dose: 6.25 mg/kg/injection, schedule: Q01DX009 (ip), vehicle: saline)?
The T/C was 146 % of control.

And the survivor count (dose: 100.0 mg/kg/injection, schedule: Q01DX009 (ip), vehicle: saline)?
Its survivor count is 10 of 10.

Source: PubChem BioAssay AID258 (DTP/NCI, 2004)
